Publication PMC11361659
The exact form of at least one protein or probe is not confirmed. At least one result comes from cells or an extract, where the contact may be indirect. For part of these data: At least one verdict rests on a figure or table, not on a statement of the authors. For part of these data: Tags and fusion partners may be left off the protein sequences shown.

Columns and labels:
[1] = tested on: TsTAF6 + TsTAF9; assay: EMSA; conditions: nuclear extract, no supershift on this probe, 5 mM Mg2+; 50 mM Tris-HCl (pH not stated), 250 mM NaCl, 5 mM MgCl2, 2.5 mM EDTA, 2.5 mM DTT (printed DDT), 20% glycerol, 1 ug poly(dI-dC), 50 fmol probe, 5 or 10 ug nuclear extract; protein in an extract; label: 32P or GelRed
[2] = target: T1, TsTBP1 (Taenia solium (cysticerci)) (UniProt A0A0N7FYW4); assay: EMSA supershift; conditions: anti-TsTBP1-N, 5 mM Mg2+; 50 mM Tris-HCl (pH not stated), 250 mM NaCl, 5 mM MgCl2, 2.5 mM EDTA, 2.5 mM DTT (printed DDT), 20% glycerol, 1 ug poly(dI-dC), 50 fmol probe, 5 or 10 ug nuclear extract; protein in an extract; label: 32P or GelRed
T1 sequence (looked up, limits assumed): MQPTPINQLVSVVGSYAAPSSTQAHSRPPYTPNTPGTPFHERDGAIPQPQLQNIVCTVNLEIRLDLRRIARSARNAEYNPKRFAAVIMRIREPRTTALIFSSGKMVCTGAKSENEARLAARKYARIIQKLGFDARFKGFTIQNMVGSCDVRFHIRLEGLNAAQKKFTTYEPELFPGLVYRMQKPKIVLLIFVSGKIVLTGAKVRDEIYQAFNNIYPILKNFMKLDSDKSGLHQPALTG

[3] = tested on: TsTAF6 + TsTAF9; assay: EMSA supershift; conditions: anti-TAF6 or anti-TAF9, separate lanes, 5 mM Mg2+; 50 mM Tris-HCl (pH not stated), 250 mM NaCl, 5 mM MgCl2, 2.5 mM EDTA, 2.5 mM DTT (printed DDT), 20% glycerol, 1 ug poly(dI-dC), 50 fmol probe, 5 or 10 ug nuclear extract; protein in an extract; label: 32P or GelRed

Q: Does “GAGCCGAGTGGTTGTGCCTCCATAG (double strand) [Consensus DPE probe (DmDPE)]” bind [1]?
A: Result: binds

Q: Does “GCGCTTCGCTATATTTGGCGGTAAG (double strand) [Ts2-CysPrx TATA-box]” bind [2]?
A: Result: binds

Q: Does “TCCGGGTTCTGTCGAGCAGATGCAG (double strand) [Tstbp1-DPE probe]” bind [3]?
A: Result: binds
